Source: paper PMC5705807
No constants are given. Whether binding was seen depends on the method and setting. In cells and extracts the contact can be indirect. Where a sequence is shown, tags or fusion partners need not be part of it.

Molecular target: Myc2-PGM2 (tandem Myc epitope fusion of PGM2) (Toxoplasma gondii)
Assay: co-IP; lysate of extracellular parasites (1x PBS, 0.25% NP-40, 400 mM NaCl, Benzonase, protease inhibitors); Myc2-PGM2 captured on 9E10 anti-Myc magnetic beads, three washes with lysis buffer, eluate blotted with PRP1 antiserum

B1: parafusin-related protein 1 (PRP1) (protein, UniProt Q95WU0 1-637)
chain: MGAKASRMRTKEEACRGSANPSHKGLPADQILSRPTTAYQDQKPGTSGLRKKTKVFMQKDYLANFAQSVFNCLPEEEKKGGTLLVSGDGRFFSHEAIYEICSIAAGNGVGRVWIGLNGLASTPACSAIIRERENGICFGGFLLTASHNPGGIDEDFGVKYDTANGAPGYEALMNEVWEKSKTISTIKYAKLPKFSIDKLGVQVNIDGAFQVEVIDPIEDWLKLMKEAFHFPAIKRLLALPHFSFVYDSMHGVSGPYAEKLFIEEFGAKRECLMRQDPLPDFGGHHPDPNLTYAEELVAKMKVLHPDQVDASTPLFGAAGDGDCDRNMILGRGFFVTPSDSVALIALYAEKCIPYFFVDKATGKGGLTGLARSMPTSRALDNVAKKLNKDVYETPTGWKYFTNLMDASRISICGEESFGTGSVHVREKDGLWAVLAWLSILAYRNGCMGDVEKERELLQEGKSVDVSPPATKETDFVSVQQIVEEFWKEYGRNFYCRYDFENKDSASAHEMLQALEELSKSSPAEITGKVASHVDENLLKEMEIDSMDWFKYTDPVDKQVSDHQGVRLFLKGGSRIIWRLSGTGSTGATIRVYMERYEPDASKVLQDERTALKDIAAFALQFCDMKKYIGTETPTVIT
**Q.** How did the binding turn out when B1 was run?
**A.** no binding
